The other results are listed elsewhere or left out. Shown are side measurements of this screen, not its main read-out; they come without a call. Most of these compounds were active or inconclusive in the main read-out, so they are no random draw. Words in brackets tell the shape of the fitted curve; partial curves, single points and poor fits give uncertain potencies.
Test: qHTS Assay for Lipid Storage Modulators in Drosophila S3 Cells;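 as to cell number change: cells counted by Cell Tracker Red CMTPX staining in the red channel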
Conditions: BODIPY lipid droplet fluorescence, 18-24 h; for cell number change: measured here: cell count max response, cells fed with added oleic acid
Outline: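 Laser-scanning cytometry quantifies lipid droplet accumulation (500–530 nm total intensity; droplet/cell object ratio) in oleic acid-fed (400 uM added) Drosophila S3 cells treated with a concentration series. 20 uM Triacsin C defined 100% inhibition.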

[1] = measured here: cell number channel AC50, cells fed with added oleic acid
[2] = measured here: lipid fluorescence (Fed channel) AC50, cells fed with added oleic acid

| SMILES | AC50 [1] | AC50 [2] | cell number change |
| --- | --- | --- | --- |
| N#Cc1c(N2CCN(C(=O)c3ccccc3)CC2)nc(-c2ccccc2)c2c1CCCC2 | 2.31 µM [rising, single point] | 23.1 µM [rising, single point] | – |
| Cc1cc(-c2csc3nc[nH]c(=S)c23)cc(C)c1C | – | 32.6 µM [falling, partial curve, poor fit] | -24.3% |
| COc1ccc(-c2nc3c(c(SCC(=O)N4CCOCC4)n2)Cc2c(CO)cnc(C)c2O3)cc1 | – | 0.651 µM [falling, single point] | -13.2% |
| CC(=O)c1cccc(NC(=S)Nc2cccc3ccccc23)c1 | 29.1 µM [falling, single point] | 29.1 µM [rising, single point] | -37.1% |
| CC1CCc2c(sc(NC(=O)CSc3nc(N)cc(=O)[nH]3)c2C(N)=O)C1 (stereo unspecified) | 16.4 µM [rising, partial curve] | – | 165% |
| CN(C)c1nc(N)nc(CSc2nnnn2-c2cccc3ccccc23)n1 | – | 3.26 µM [rising, partial curve] | -6.36% |
| COc1ccc(C(=O)NCc2nnc(SCC(=O)Nc3nc4ccccc4s3)o2)cc1 | – | 0.651 µM [falling, partial curve, poor fit] | -2.12% |
| CC1CN(C(=O)c2cccc(S(=O)(=O)N3CCN(c4ccc(F)cc4)CC3)c2)CC(C)O1 (stereo unspecified) | – | 16.4 µM [falling, partial curve] | -18.2% |
| COc1cc(Br)c(C2C(C#N)=C(N)Oc3n[nH]c(-c4cccnc4)c32)cc1OC (stereo unspecified) | – | 23.1 µM [rising, partial curve] | – |
| O=C(CSC1=NCCS1)NC1CCCCC1 | 1.84 µM [falling, partial curve, poor fit] | 6.51 µM [falling, full curve] | -63.1% |
| NC(=O)c1cccc(C(N)=O)n1 | – | 0.00461 µM [falling, full curve, poor fit] | -12.3% |
| CC(C)(O)CC[C@@H](O)[C@](C)(O)C1CC[C@@]2(O)C3=CC(=O)[C@]4(O)C[C@@H](O)[C@@H](O)C[C@]4(C)C3CC[C@]12C (stereo partly specified) | 0.082 µM [falling, full curve, poor fit] | – | -29.7% |
| COc1cc(OC)cc(C(=O)NC(C)CCc2ccccc2)c1 (stereo unspecified) | – | 3.66 µM [falling, single point] | -18.9% |
| COc1c2occc2c(OC)c2c(=O)cc(C)oc12 | – | 0.366 µM [rising, full curve] | -0.233% |
| Cc1ccc(NC(=O)C2CC(=O)N(c3ccc4c(c3)OCCO4)C2)cc1S(=O)(=O)N1CCCCCC1 (stereo unspecified) | 8.2 µM [falling, partial curve, poor fit] | – | -50% |

3 compounds out of the list, ordered by number of heavy atoms, falling.

| SMILES | AC50 [1] | AC50 [2] | cell number change |
| --- | --- | --- | --- |
| COc1ccc(-c2nc3c(c(SCC(=O)N4CCOCC4)n2)Cc2c(CO)cnc(C)c2O3)cc1 | – | 0.651 µM [falling, single point] | -13.2% |
| CC1CCc2c(sc(NC(=O)CSc3nc(N)cc(=O)[nH]3)c2C(N)=O)C1 (stereo unspecified) | 16.4 µM [rising, partial curve] | – | 165% |
| Cc1cc(-c2csc3nc[nH]c(=S)c23)cc(C)c1C | – | 32.6 µM [falling, partial curve, poor fit] | -24.3% |

Reference: PubChem BioAssay AID2685 (National Center for Advancing Translational Sciences (NCATS), 2010)
